In data set [1] the test system is Metrazol-induced clonic seizures. As to conditions: Mice IP; from Antiepileptic Drugs, 5th ed., Levy et al., 2002; cited from earlier work.
The test system is the same in data set [2]. Put plainly: Subcutaneous Metrazol test (scMet), mice. The data set is classed as in vivo. The settings on record: Mice IP. As to the method: (§1) The benzodiazepine derivative compounds selective for GABAa receptor subunits were tested for the ability to suppress seizures in several standard rat and mouse models of epilepsy. […] The standard models incorporated into anticonvulsant screening include the maximal electroshock test (MES), the subcutaneous Metrazol test (scMet), and evaluations of toxicity (TOX). The data for each condition is presented as a ratio of either the number of animals protected or toxic (loss of locomotor activity) over the number of animals tested at a given time point and dose.
(§2) Subcutaneous injection of the convulsant Metrazol produces clonic seizures in laboratory animals. […] Animals are pretreated with various doses of the test compound (in a similar manner to the MES test, although a dose of 50 mg/kg (po) is the standard for Test 2 scMet). At the previously determined TPE of the test compound, the dose of Metrazol which will induce convulsions in 97% of animals (CD97: 85 mg/kg mice) is injected into a loose fold of skin in the midline of the neck. […] An episode of clonic spasms, approximately 3-5 seconds, of the fore and/or hindlimbs, jaws, or vibrissae is taken as the endpoint.

For data set [3] the test system is unchanged. Put plainly: Subcutaneous Metrazol test (scMet), rats. The data set is classed as in vivo. The settings on record: Rat PO. How it is done: as §1, §2
The subject of data set [4] is Pilocarpine-induced Status. Put plainly: Pilocarpine-induced status. The data set is classed as in vivo, rats. As to conditions: weight change 24 hours post seizure.
Setting [5] is: 600 mg/kg, 0 Hrs post first Stage III seizure.
The mark [6] stands for this setting: 1,000 mg/kg, 0.5 Hrs post first Stage III seizure.

“And” between values parts separate entries of the source, which are not always exact repeats. Equal entries are not always repeated. Where two headings read alike, the source gives them in different places.

Here are results for five compounds from patent US20100261711A1, “SELECTIVE ANTICONVULSANT AGENTS AND THEIR USES” (WiSys Technology Foundation, priority 2009, published 2010).

As for `O=C1CN=C(c2ccccc2Cl)c2cc([N+](=O)[O-])ccc2N1` [Clonazepan], the “TI TD50/ED50 (scMet)” value in data set [1] is 13.

On to `C#Cc1ccc2c(c1)C(c1ccccc1F)=NCc1c(C(=O)OCC)ncn1-2` [JY-XHe-053 (15), Ethyl-8-acetyleno-6-(2′-fluorophenyl)-4H-benzo[f]imidazo[1,5-a][1,4]diazepine-3-carboxylate], for which the “TI TD50/ED50 (scMet)” value in data set [2] was 44 and >44; in data set [3] it was above 21.

Turning to `O=C1NC(=O)C(c2ccccc2)(c2ccccc2)N1` [Phenytoin], the “TI TD50/ED50 (scMet)” value in data set [1] is on record as below 0.82.

For `C#Cc1ccc2c(c1)C(c1ccccc1)=N[C@H](C)c1nnc(C)n1-2` [SH-TR-CH3 (146), (4R)-8-Ethynyl-1,4-dimethyl-6-phenyl-4H-benzo[f][1,2,4]triazolo[4,3-a][1,4]diazepine], in data set [4] (setting [5]), the “Avg. Weight Change ± SEM, Non-Protected Rats” value is -13.3 ± 1.0 g and the “Avg. Weight Change ± SEM, Protected Rats” value is -5.0 ± 4.8 g. Further, in data set [4] (setting [6]), the “Avg. Weight Change ± SEM, Non-Protected Rats” value is -19.0 ± 0.8 g and the “Avg. Weight Change ± SEM, Protected Rats” value was “+5.0 ± 0.0 g”.

Turning to `C#Cc1ccc2c(c1)C(c1ccccc1Cl)=NCc1nnc(C)n1-2` [XLi-JY-DMH (23), 8-Acetyleno-5-(2′-chlorophenyl)-1-methyl-4H-s-triazolo-[4,3-a]-1,4-benzodiazepine], the “TI TD50/ED50 (scMet)” value is on record as 2.9 in data set [2] and above 105 in data set [3].
